Measurements reported in PubChem BioAssay AID1259308 (NCATS, 2017)

Aim: 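Genes whose loss raises luciferase production in HEK293 cells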 (primary screen)
Cells: human HEK293 embryonic kidney cells stably expressing firefly luciferase (HEK-CMV-Luc2-Hygro)
Knock-down reagent: single siRNA against human genes, 0.8 pmol siRNA per well
Timing: 72 h
Measured: 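Luciferase light (ONE-Glo) measured on one replicate plate set and viability (CellTiter-Glo) on the other, scaled to a negative control siRNA, with robust z-scores and luciferase per cell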
Reading the numbers: total luciferase, z-score: higher = more reporter protein produced
Rule for the call: 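Active when the median/MAD z-score for overall luciferase is greater than 3; a gene was taken forward for validation with new siRNAs if at least two of its three siRNAs passed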
Meaning of the calls: active = raised luciferase; inactive = no rise
This is one part, drawn at random, of about 59,000 deposited reagents. About 1,510 of all reagents (2.6%) count as active. 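Calls use total luciferase alone and ignore viability, so some active siRNAs may act by altering cell number.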 Further read-outs or replicates are left out here.

SLC5A10 (GeneID 125206) [SID160756321] → total luciferase, z-score: -1.12; Outcome: inactive
SLC5A10 (GeneID 125206) [SID160756322] → total luciferase, z-score: -0.0196; Outcome: inactive
SLC5A10 (GeneID 125206) [SID160756323] → total luciferase, z-score: -2.2; Outcome: inactive
SPRR1B (GeneID 6699) [SID160717286] → total luciferase, z-score: 0.0426; Outcome: inactive
SPRR1B (GeneID 6699) [SID160717287] → total luciferase, z-score: 1.26; Outcome: inactive
SPRR1B (GeneID 6699) [SID160717288] → total luciferase, z-score: 4.28; Outcome: active
KCNAB2 (GeneID 8514) [SID160720207] → total luciferase, z-score: -0.0621; Outcome: inactive
KCNAB2 (GeneID 8514) [SID160720208] → total luciferase, z-score: 2.01; Outcome: inactive
KCNAB2 (GeneID 8514) [SID160720209] → total luciferase, z-score: -0.224; Outcome: inactive
TSPAN32 (GeneID 10077) [SID160725048] → total luciferase, z-score: 0.293; Outcome: inactive
TSPAN32 (GeneID 10077) [SID160725058] → total luciferase, z-score: -0.54; Outcome: inactive
TSPAN32 (GeneID 10077) [SID160725063] → total luciferase, z-score: -0.678; Outcome: inactive
F5 (GeneID 2153) [SID160763012] → total luciferase, z-score: -0.269; Outcome: inactive
F5 (GeneID 2153) [SID160763021] → total luciferase, z-score: 0.841; Outcome: inactive
F5 (GeneID 2153) [SID160763032] → total luciferase, z-score: -1.65; Outcome: inactive
ARL14EP (GeneID 120534) [SID160755818] → total luciferase, z-score: -0.401; Outcome: inactive
ARL14EP (GeneID 120534) [SID160755819] → total luciferase, z-score: -0.566; Outcome: inactive
ARL14EP (GeneID 120534) [SID160755820] → total luciferase, z-score: 0.275; Outcome: inactive
DNAJC9 (GeneID 23234) [SID160735789] → total luciferase, z-score: 0.503; Outcome: inactive
DNAJC9 (GeneID 23234) [SID160735790] → total luciferase, z-score: -1.84; Outcome: inactive
DNAJC9 (GeneID 23234) [SID160735791] → total luciferase, z-score: -0.154; Outcome: inactive
BPHL (GeneID 670) [SID160728756] → total luciferase, z-score: -1.38; Outcome: inactive
BPHL (GeneID 670) [SID160728766] → total luciferase, z-score: 1.16; Outcome: inactive
BPHL (GeneID 670) [SID160728776] → total luciferase, z-score: 1.78; Outcome: inactive
MIR4500HG (GeneID 642345) [SID160768586] → total luciferase, z-score: -0.151; Outcome: inactive
MIR4500HG (GeneID 642345) [SID160768587] → total luciferase, z-score: -0.778; Outcome: inactive
MIR4500HG (GeneID 642345) [SID160768588] → total luciferase, z-score: -0.193; Outcome: inactive
OBI1 (GeneID 79596) [SID160748964] → total luciferase, z-score: -0.596; Outcome: inactive
OBI1 (GeneID 79596) [SID160748965] → total luciferase, z-score: 0.457; Outcome: inactive
OBI1 (GeneID 79596) [SID160748966] → total luciferase, z-score: 0.55; Outcome: inactive
CA14 (GeneID 23632) [SID160736718] → total luciferase, z-score: -0.0274; Outcome: inactive
CA14 (GeneID 23632) [SID160736719] → total luciferase, z-score: 2.32; Outcome: inactive
CA14 (GeneID 23632) [SID160736721] → total luciferase, z-score: -0.331; Outcome: inactive

A stretch of the results above, as a working copy:
ARL14EP (GeneID 120534) [SID160755819] → total luciferase, z-score: -0.566; Outcome: inactive
ARL14EP (GeneID 120534) [SID160755820] → total luciferase, z-score: 0.275; Outcome: inactive
DNAJC9 (GeneID 23234) [SID160735789] → total luciferase, z-score: 0.503; Outcome: inactive
DNAJC9 (GeneID 23234) [SID160735790] → total luciferase, z-score: -1.84; Outcome: inactive
